Reference: patent US6436942B1, “Enantiomers of 1[(4-chloro-phenyl) phenylmethyl]-4-[(4-methylphenyl) sulfony]piperazine” (UCB, S.A., priority 1993, dated 2002)
Counter-ions that a name gives are not always drawn.

Tested on: mice
Experiment: Toxicity: lethal dose in mice after intraperitoneal injection
Format: in vivo
Conditions: dose causing death in 2 out of 3 mice
Text: The compounds of formula V have low toxicity. The lethal dose (causing death in 2 out of 3 mice following intraperitoneal injection of the compounds) is appreciably higher than the dose required to inhibit the cutaneous reaction induced by histamine in the dog. Table VI gives the values for the lethal doses (in mice) for the compounds of formula V.

`O=C(O)COCCN1CCN(C(c2ccccc2)c2ccc(Cl)cc2)CC1` (single isomer, unassigned) [O, levorotatory dihydrochloride of 2-[2-[4-[(4-chlorophenyl)phenylmethyl]-1-piperazinyl]ethoxy]acetic acid] was tested, and the Lethal dose was 0.0003 mol/kg.
